From patent EP4600262A1, “KERATIN YK93-5, PREPARATION METHOD, AND PHARMACEUTICAL COMPOSITION AND USE THEREOF” (INSTITUTE OF MATERIA MEDICA, CHINESE ACADEMY OF MEDICAL …, priority 2022, dated 2024) come the findings set out here.

Counter-ions that a name gives are not always drawn.

For this test, the system named is mouse pain model. Nature of the test: mouse pain model (1% acetic acid writhing). The format is in vivo, Male Kunming mice. As to conditions: writhing reaction vs normal control group; Tramadol Hydrochloride 50mg/kg, YK93-5 2g/kg. How it is done:
• Animals: Male Kunming mice; • Drugs: Tramadol Hydrochloride Sustained Release Tablets, Glacial acetic acid, YK93-5; • Instruments: electronic balance, timer
• Normal control group; • Positive control group: Tramadol Hydrochloride group; • Protein YK93-5, (2g/kg) group.
Mice in the YK93-5 (2g/kg) group were administered by gavage, while mice in the model group were given an equal volume of CMC-Na once a day for 7 consecutive days. 30 minutes after the last administration, 1% acetic acid was administered intraperitoneally, and the writhing times of mice within 15 minutes was recorded, and the inhibition rate of drug-induced writhing reaction was calculated. The observation criteria were concave abdominal cavity, extended hind limbs, and raised buttocks.
The inhibition rate was calculated by (Mean number of writhing reactions in the normal control group - Mean number of writhing reactions in the treatment group)/Mean number of writhing reactions in the normal control group *100%.
(In general: An intraperitoneal irritant provokes the stretching counted in writhing tests.)

As for `COc1cccc(C2(O)CCCCC2CN(C)C)c1` (stereo not shown) [Tramadol Hydrochloride], the “Inhibition rate (%)” value amounted to 93.88%.
